Results are given in words; binding and its absence hold for the method and conditions named. Some entries that bind do so weakly or less than the wild type.

By UniProt entry, the sequences of proteins in these tests, tags left out. Where a name states a change or a piece, a line headed by the entry shows the natural chain unless it says otherwise.
UniProt Q8TDQ0: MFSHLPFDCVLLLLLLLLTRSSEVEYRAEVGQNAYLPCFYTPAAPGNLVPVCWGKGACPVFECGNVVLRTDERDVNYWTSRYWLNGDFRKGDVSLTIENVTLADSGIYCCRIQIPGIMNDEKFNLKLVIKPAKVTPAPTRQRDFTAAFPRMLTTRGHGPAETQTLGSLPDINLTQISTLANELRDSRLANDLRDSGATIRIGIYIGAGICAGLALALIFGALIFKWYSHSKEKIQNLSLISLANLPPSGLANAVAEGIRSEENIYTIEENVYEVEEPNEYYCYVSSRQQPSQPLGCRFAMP

For seven molecules, binding results are on record in patent US20150086574A1 (CELLERANT THERAPEUTICS, published 2015).

In assay [1] the target is recombinant TIM3 protein (Homo sapiens (Human)) (UniProt Q8TDQ0). Briefly: ELISA screen of hybridomas.
Assay [2] deals with T cell Immunoglobulin- and Mucin domain-containing molecule 3 (TIM3), human, on cells (human) (UniProt Q8TDQ0). Briefly: flow cytometry, TIM3 expressing cell lines.

B1: 27.12E12 (antibody, V domains shown)
VH: EVQLQQSGAELVRPGALVKLSCKASGFNIKDYYMYWMKQRPEQGLEWIGWIDPENVKTIYDPKFQGRATLTADTSSNTAYLQLSSLTSEDTAVYYCTRDFGYVGFFDVWGAGTTVTVSS
VL: DIVMTQSQKFMSTSVGDRVSVNCKASQNVGTNVVWYQQKPGQSPKALIYSASYRYSGVPDRFTGSGSGTDFTLTISTVQSEDLAEYFCQQYNSYPLTFGGGTKLEIKR
Consider B1, for which, in assay [1], the binding entry was “binds”.

B2: 33.2A5 (antibody, IgG1, V domains shown)
VH: QVQLQQSGAELAKPGVSVKMSCKASGYTSNYNWIHWIKQRPGQGLEWIGYINPATGYTDYNQKFRDKVTLTADKSSSTAYMQLSSLTSEDSALYYCTTGRNDEGGYALDSWGQGTSVTVSS
VL: GVVVTQSPTSLAVSLGQRATISCKASQSVDHAGDSYMNWYQQKAGQPPKLLIYGASYLESVIPGRFSGSGSGTDFTLNIHPVEEEDVATYFCQQSNEDPYTFG
As for B2, the binding result in assay [1] and in assay [2] was “binds” in each case.

B3: 27.2H4 (antibody, IgG1, V domains shown)
VH: EVQLQQSGAELVRPGALVKLSCKASGFNIKHYYIHWVNQRPEQGLEWIGWIDPETGNTIYDPKFQGKASITADTSSSTAYLQLNSLTSEDTAVYCCARGWSYAMDYWGQGTSVIVSS
VL: DIVMTQSHKFMSTSVGDRVSITCKASQDVNTAVAWYQQKPGHSPKLLIYSASYHYTGVPDRFTGSGSGTDFTFTISSVQAEDLAVYYCQQHYSTPWTFGGGTKLEIK
notes: also called 27.2H4 (D2.1)
Turning to B3, in assay [1], the binding entry was “binds”.

B4: 1.7E10 (antibody, V domains shown)
VH: EVKLLESGGGLVQPGGSLKLSCAASGFDFSRYWMSWVRQAPGKGLEWIGEINPDSSTINYTPSLKDKFIISRDNAKNTLFLQMSKVRSEDTALYYCARPSYDGYYGYAMDYWGQGTSVTVSS
VL: DIVLTQSPASLAVSLGQRATISCRASESVDSYGKSFMHWYQQKPGQPPKLLIYRASNLESGIPARFSGSGSRTDFTLTINPVEADDVATYYCQQSNEDPYTFGGGTKLEIKR
As for B4, in assay [1], the binding result is listed as “binds”.

B5: 33.1G12 (antibody, IgG1, V domains shown)
VH: EVQLQQSGPELVKPGASVKISCKASGYSFTGYLMNWVMQSHGKSLEWIGRINPYNGDIFYNQKFKDKATLTVDKSSSTAHMELRSLASEDSAVYYCARRDENFDYDNAMDYWGQGTSVTL
VL: DIVLTQSPASLAVSLGQRATISCRASESVDIYGNSFMHWYQQKPGQPPKLLIYRASNLESGIPARFRGSGSRTDFTLTIYPVEADDVATYYCQQSNEDPWTFGGGTKLEIK
notes: the printed VH ends early (…GQGTSVT)
Regarding B5, in assay [1], the binding entry is “binds”.

B6: 7.10F6 (antibody, IgG1, V domains shown)
VH: EVQLVESGGGLVQPGGSLKLSCAASGFIFSGYGMSWVRQTPDKRLELVAIINSNGGSVDYPDSVKGRVTISRDNAKNTLYLQMSSLKSEDTAMYYCARIYYRCMDYWGQGTSVTVSS
VL: NIMMTQSPSSLAVSAGEKVTMSCKSSQSLLYSSNQKNYLAWYQQKPGQSPKLLIYWASARESGVPDRFTGGGSGTDFTLTISSVQAEDLAVYYCHQYLSSYTFGGGTKLEIKR
notes: also called 7.10F6.1; 7.10F6.1-pure
For the molecule B6, in assay [1], the binding entry is given as “binds”.

B7: 6.14B9 (antibody, V domains shown)
VH: DVQLQESGPGLVKPSQSLSLTCTVTGYSITSDYAWNWIRQFPGNKLEWMGYISYSGSISYNPSLKSRISITRDTSKNQFFLQLNSVTTEDTATYYCARSGRLRRDFDYWGQGTTLT
VL: DIQMTQSPSSLSASLGERVSLTCRASQEISGYLSWLQQKPDGTIKRLIYAASTLDSGVPKRFSGSRSGSDYSLTISSLESEDFADYYCLQYASYPLTFGAGTKLELK
For the molecule B7, in assay [1], the binding result is given as “binds”.
